The source of these data is publication PMC10368634.

Protein sequences, listed by entry. Tags and fused reporters are not part of them.
UniProt P09211: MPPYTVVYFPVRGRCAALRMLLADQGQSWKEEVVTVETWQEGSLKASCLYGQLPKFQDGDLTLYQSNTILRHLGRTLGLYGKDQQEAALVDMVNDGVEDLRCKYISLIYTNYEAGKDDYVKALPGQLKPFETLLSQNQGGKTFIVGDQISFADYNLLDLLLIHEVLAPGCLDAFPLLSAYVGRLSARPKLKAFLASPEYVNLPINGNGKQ

Results are given in words; binding and its absence hold for the method and conditions named. In cells and extracts the contact can be indirect. These calls come from enrichment with a bait or labelling near it, and not all partners need be listed.

The target of the assay is GFP-fused full length GSTP1 (glutathione S-transferase pi) (human) (UniProt P09211). In words: affinity purification with mass spectrometry; GFP-GSTP1 immuno-enriched, the mixture analysed by mass spectrometry.

Regarding “G6PD (glucose-6-phosphate dehydrogenase), endogenous (from UniProt P11413 1-515) (enzyme)”, the binding result is “binds”.
